# Whole data set: some 33,000 sequences, median “E-score (-0.5 to 0.5)” near -0.016, cut for the highest 2% near 0.3. The list shows a part of the results.
# Biological target: T1, Yer184c (UniProt P39961)
# T1 sequence: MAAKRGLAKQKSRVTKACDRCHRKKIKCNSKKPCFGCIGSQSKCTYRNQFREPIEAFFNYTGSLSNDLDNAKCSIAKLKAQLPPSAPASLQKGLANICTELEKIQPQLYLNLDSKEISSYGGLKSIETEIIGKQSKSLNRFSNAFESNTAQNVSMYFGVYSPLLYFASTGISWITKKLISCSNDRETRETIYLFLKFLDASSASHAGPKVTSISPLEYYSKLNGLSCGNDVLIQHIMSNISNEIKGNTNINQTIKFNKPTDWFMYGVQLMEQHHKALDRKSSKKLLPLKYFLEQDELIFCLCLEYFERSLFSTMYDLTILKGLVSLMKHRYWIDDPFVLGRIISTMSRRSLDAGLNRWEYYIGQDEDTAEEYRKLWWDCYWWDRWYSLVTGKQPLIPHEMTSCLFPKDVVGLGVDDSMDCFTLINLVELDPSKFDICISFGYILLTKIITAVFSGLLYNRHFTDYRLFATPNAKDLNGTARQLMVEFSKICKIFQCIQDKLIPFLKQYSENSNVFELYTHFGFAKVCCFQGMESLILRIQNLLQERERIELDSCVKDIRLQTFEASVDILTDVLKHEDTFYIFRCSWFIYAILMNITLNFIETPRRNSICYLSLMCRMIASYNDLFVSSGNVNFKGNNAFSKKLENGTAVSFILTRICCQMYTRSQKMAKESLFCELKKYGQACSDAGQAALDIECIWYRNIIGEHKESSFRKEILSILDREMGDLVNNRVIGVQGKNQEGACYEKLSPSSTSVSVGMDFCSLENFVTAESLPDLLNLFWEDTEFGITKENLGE
# Assay: PBM E-score (8-mer binding enrichment) (E-score (-0.5 to 0.5)); higher = stronger / more preferred TF binding
# Conditions: protein concentration: 100 nM; construct: GST-full length
# Method in brief: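 Each ungapped eight-base word and its reverse complement, pooled, received an E-score from the Universal PBM Analysis Suite. Underlying scans, normalised with masliner, recorded fluorescent anti-GST bound to GST-tagged yeast transcription factors. These were applied at about 100-200 nM to universal all-10-mer Agilent arrays double-stranded by primer extension.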
row,Sequence,PBM E-score
1,AACGGTCC,-0.0409
2,AAACAAGC,0.11
3,GCTATACC,-0.124
4,AGCACCTG,-0.0415
5,CGCTCACC,-0.208
6,GGCCCGAC,0.0318
7,AACTCTTA,0.136
8,GACATCGA,0.0281
9,ATGTATTA,0.137
10,CGCACCGC,-0.0998
11,ATCGAGGA,0.106
12,ACACTCAA,0.067
13,AAGCTACC,0.0307
14,TACTCGCA,0.0751
15,GTTACGGA,0.206
16,TCGATCCA,-0.148
17,ATGCGCGA,-0.0505
18,ACTGGAGA,-0.0719
19,ATCACAAG,0.00864
20,ATCAGCAA,0.0156
21,AAAGACCC,0.118
22,ATGCTTGA,0.025
23,GAAGGCTA,-0.0973
24,CTATGAAC,0.0391
25,GCTGAAAA,0.136

row,Sequence,PBM E-score
1,AACACCAC,-0.0481
2,AGTAGTCA,-0.0486
3,CGGATCCA,0.263
4,AGAGGACT,-0.298
5,AGGTTTAC,-0.104
6,ATCCGATA,0.266
7,GGGTATCA,-0.0667
8,CTCCCCTC,-0.186
9,CACGACAA,-0.0609
10,AAGTACAA,-0.0462
11,CTCTTTTC,-0.0404
12,CTGAGAAA,-0.0692
13,AACACGAA,0.199
14,GACGTGTA,-0.0892
15,CTCCCGGA,0.243
16,AAGATGCG,0.0137
17,GGCTCAAA,0.204
18,CCAACCTC,-0.138
19,ACTCGCCC,-0.232
20,AAGAGCTA,-0.00838
21,CTTGGCGA,-0.211
22,AGACCAAC,-0.108
23,CAAGGATG,-0.187
24,GCGATCAC,-0.19
25,AAAAATAT,0.24

row,Sequence,PBM E-score
1,ACACGTTC,-0.193
2,TGACATCA,-0.0407
3,ACCATCGA,-0.121
4,GTCAGCAA,-0.0872
5,AGCCATTA,0.0764
6,AAGAAACC,0.129
7,TAATTAGA,0.149
8,AATGCCGG,0.35
9,CATAGGCC,-0.111
10,CTACATAA,-0.0544
11,GTTGCAAC,0.0994
12,TATAACCA,0.0124
13,CTAAAGTC,-0.0167
14,CCTGGAGC,-0.322
15,ACTATTAC,0.139
16,ACGGCCGG,0.372
17,ACATTTGA,0.223
18,TAAGCGAA,0.0677
19,AATCTTGC,0.206
20,GCCAGCTA,-0.223
21,CGGGTGAA,0.243
22,GGCCGGAC,0.294
23,CCCGCGCG,0.241
24,GAGAGAAA,0.0947
25,GGACCCAA,-0.081

# Given as tab-separated lines: part of the list above.
row	Sequence	PBM E-score
7	AACTCTTA	0.136
8	GACATCGA	0.0281
9	ATGTATTA	0.137
10	CGCACCGC	-0.0998
11	ATCGAGGA	0.106
12	ACACTCAA	0.067
13	AAGCTACC	0.0307
14	TACTCGCA	0.0751
15	GTTACGGA	0.206
16	TCGATCCA	-0.148
17	ATGCGCGA	-0.0505
18	ACTGGAGA	-0.0719
19	ATCACAAG	0.00864
20	ATCAGCAA	0.0156
21	AAAGACCC	0.118
22	ATGCTTGA	0.025
23	GAAGGCTA	-0.0973
24	CTATGAAC	0.0391
25	GCTGAAAA	0.136
1	AACACCAC	-0.0481
2	AGTAGTCA	-0.0486
3	CGGATCCA	0.263
4	AGAGGACT	-0.298
5	AGGTTTAC	-0.104
6	ATCCGATA	0.266
7	GGGTATCA	-0.0667
8	CTCCCCTC	-0.186
9	CACGACAA	-0.0609
10	AAGTACAA	-0.0462
11	CTCTTTTC	-0.0404
12	CTGAGAAA	-0.0692
13	AACACGAA	0.199
14	GACGTGTA	-0.0892
15	CTCCCGGA	0.243
16	AAGATGCG	0.0137
17	GGCTCAAA	0.204
18	CCAACCTC	-0.138
19	ACTCGCCC	-0.232
20	AAGAGCTA	-0.00838
21	CTTGGCGA	-0.211
22	AGACCAAC	-0.108
23	CAAGGATG	-0.187
24	GCGATCAC	-0.19
25	AAAAATAT	0.24
1	ACACGTTC	-0.193
2	TGACATCA	-0.0407
3	ACCATCGA	-0.121
4	GTCAGCAA	-0.0872
5	AGCCATTA	0.0764
6	AAGAAACC	0.129
7	TAATTAGA	0.149
8	AATGCCGG	0.35
9	CATAGGCC	-0.111
10	CTACATAA	-0.0544
11	GTTGCAAC	0.0994
12	TATAACCA	0.0124
13	CTAAAGTC	-0.0167
14	CCTGGAGC	-0.322
15	ACTATTAC	0.139
16	ACGGCCGG	0.372
17	ACATTTGA	0.223
18	TAAGCGAA	0.0677
19	AATCTTGC	0.206
20	GCCAGCTA	-0.223
21	CGGGTGAA	0.243
22	GGCCGGAC	0.294
23	CCCGCGCG	0.241

# (further entries)

row,Sequence,PBM E-score
1,GCTATTCA,0.0897
2,TAACCGTA,-0.0723
3,ATCCAGGG,-0.205
4,AGTCCGGG,0.212
5,CGTCGCCA,-0.211
6,CTGCCTAC,0.124
7,ATTGATTG,0.174
8,GCTTTAAC,0.0368
9,ATAAATTG,0.254
10,CCATTCCC,-0.135
11,CGTGAACG,-0.101
12,CTAGGATA,-0.0114
13,ACGCTATG,-0.221
14,AAAACGTA,-0.0331
15,CGTTCACC,-0.0824
16,GACTTTGC,-0.0657
17,AAAACATA,0.158
18,AGTATCTC,0.0414
19,AATACGTG,0.0311
20,GACGGATC,0.115
21,CCGATCAA,0.184
22,GGATGAAC,0.101
23,CCCTAAAA,-0.238
24,GTCGGCCA,-0.145
25,ACCAAGCG,-0.238

row,Sequence,PBM E-score
1,AACGGACT,0.14
2,ACGGCACA,0.0865
3,GTCCTCCA,-0.165
4,ACATCCAA,-0.0302
5,GTTTATTA,0.225
6,GGGCGGAA,0.0682
7,CCTAGGAG,-0.0738
8,TAATAGTA,0.173
9,ATCGGAAG,0.211
10,AAAAGATT,0.094
11,CAGAGCTA,-0.25
12,CGCACAAG,-0.0592
13,GGTGCCTA,-0.0856
14,CAATACAA,-0.00303
15,CACATTTC,0.101
16,CAGGGAGC,-0.304
17,CATAACTA,0.0337
18,GAGGAGAA,-0.159
19,CGGGTACG,-0.0897
20,CTTAGCCA,-0.14
21,CTCAGTGC,-0.113
22,CCAGACTA,-0.0362
23,TACATGTA,0.00046
24,CCCCCCAC,-0.435
25,ATGGGACC,-0.27

row,Sequence,PBM E-score
1,CCAATTAG,0.0929
2,AGTAACAC,0.0939
3,CTAGCGCA,-0.286
4,CTCGGGAA,0.211
5,ATCTAATC,0.0898
6,CTTGAGTA,-0.0342
7,ACAGAAGG,-0.135
8,CTAGTAAG,0.0138
9,ACGCTACT,0.0174
10,ATTTATAA,0.326
11,CAGGCAGC,-0.202
12,AGATCATC,0.0775
13,ACGAAGAG,-0.023
14,AGAGCTAA,-0.0157
15,CCGGATGC,0.331
16,ATACTCTG,0.006
17,ATAGTTGA,0.0411
18,AAGGAGAA,0.00097
19,CTTGATTC,0.0724
20,ACCCAACA,-0.227
21,ATAACACA,0.103
22,ATTGTTGA,0.141
23,AAGTAGTG,-0.211
24,ATGCAAGC,-0.0528
25,GGTAGCAA,-0.223

row,Sequence,PBM E-score
1,ATAGATCA,0.216
2,AGTTAGAC,0.123
3,CTGGCAAC,-0.215
4,AGTCAGAA,-0.0922
5,TATCTAGA,0.0545
6,CATGATGG,-0.267
7,ACAGCCTG,-0.102
8,CGGCACAC,0.205
9,GAAGCAGC,-0.0796
10,AGGTAGCC,-0.123
11,CATCGGCC,0.115
12,CATATTGC,-0.252
13,TCATATAA,0.11
14,CCACCAGA,-0.229
15,TAAATTCA,-0.0563
16,GTACATCA,0.016
17,ATCGAATA,-0.0754
18,AGCTGCCT,-0.232
19,CTCTAGAA,-0.166
20,GGGAGAGA,-0.325
21,AGCTTTAG,-0.0783
22,CCTTGGGC,-0.169
23,GAATTGGC,-0.0767
24,ATAAACAT,0.116
25,GTATGCAA,0.0937

row,Sequence,PBM E-score
1,ACCGTGTA,-0.0437
2,TAAGCTGA,0.0286
3,CAATCCAC,0.0253
4,AACCGGTA,0.0801
5,TAACCTAA,0.077
6,CTGAAGAA,-0.114
7,CTCACCAC,-0.195
8,ATATGAGA,-0.00418
9,CCCATTAG,-0.347
10,ACTAATTG,0.0671
11,GAGAGTGC,-0.191
12,ACGTCGAG,-0.295
13,GAACGTGC,-0.198
14,CGTGCAAA,0.0315
15,CCAGATCC,-0.121
16,GGCAAACA,-0.00042
17,ACGGTCCG,0.161
18,GGGCACAA,-0.0612
19,GTCGAAGA,0.00616
20,CGACGTAC,-0.0442
21,CGTAGACG,0.0318
22,CGCCCTAC,-0.283
23,AACAACTC,-0.0434
24,GCGTGTAA,-0.168
25,AGGCCATG,-0.186

row,Sequence,PBM E-score
1,GCAAAAAC,0.0467
2,CTCAAGAC,0.0376
3,ACCTATAG,-0.233
4,TCAGTAAA,0.159
5,CCTCATAC,-0.0481
6,CGCCGCGA,0.134
7,GTTAACTA,0.124
8,CGTCCCAA,-0.0429
9,CTCACCCC,-0.149
10,CATCTCCC,-0.0754
11,AACCGACT,0.0723
12,CGACTGCA,-0.101
13,AACAAACC,0.244
14,AGTGACTA,-0.0344
15,ACAGATGC,-0.0566
16,CCGTCTAA,0.0805
17,CTGTAAGA,0.0561
18,TAAGAGGA,0.111
19,ATGGCCAC,-0.345
